The results in this text go back to PubChem BioAssay AID1159583 (ICCB-Longwood Screening Facility, Harvard Medical School, 2016).

Structures are written as SMILES. Some of the results follow. Some tests of the compounds listed are not included; inactive here does not mean inactive elsewhere.

The nature of the experiment: hypoxia reporter signal reduction in M. tuberculosis – fluorescence, absorbance growth readout, primary screen (AID 1159583). The conditions noted are these: M. tuberculosis hypoxia-regulated fluorescent reporter, measured here: M. tuberculosis growth (absorbance), stronger effect = higher value, concentration not given here.
Turning to `O=C(NCC1(N2CCCCC2)CCCCC1)c1cccc(Cl)c1`, the growth inhibition is -1.84%.
Take `COc1cccc(C(=O)NCC2(N3CCCCC3)CCCCC2)c1`: the growth inhibition is 1.54%.
For the compound `COc1ccc(Cl)cc1C(=O)NCC1(N(C)C)CCCCC1`, the growth inhibition came to 7.05%.
For `COc1cc(C(=O)NCC2(N(C)C)CCCCC2)c([N+](=O)[O-])cc1OC`, the growth inhibition came to 7.63%.
In the case of `CN(C)C1(CNC(=O)c2ccc(Br)cc2)CCCCC1`, the growth inhibition came to 8%.
Turning to `CC(C)Oc1ccc(C(=O)NCC2(N(C)C)CCCCC2)cc1`, the growth inhibition came out at 9.43%.
In the case of `O=C(OCCN1CCCC1)C(O)(c1ccccc1)c1ccccc1`, the growth inhibition turned out to be 16.7%.
As to `COc1ccc(Br)c(C(=O)NCC2(N3CCCCC3)CCCCC2)c1`, the growth inhibition turned out to be 2.93%.
For the compound `O=C(OC1CN2CCC1CC2)C(CO)(c1ccccc1)c1ccccc1` (configuration not stated), the growth inhibition is -0.814%.
Turning to `Cc1ccc(C(=O)NCC2(N3CCCCC3)CCCCC2)cc1`, the growth inhibition is -2.84%.
As to `COc1cc(SC)ccc1C(=O)NCC1(N(C)C)CCCCC1`, the growth inhibition is -5.37%.
As for `CN1[C@@H]2CC[C@H]1CC(OC(=O)C(O)(c1ccccc1)c1ccccc1)C2` (some centres not stated), the growth inhibition turned out to be 7.52%.
Consider `O=C(NCC1(N2CCCCC2)CCCCC1)c1cc([N+](=O)[O-])ccc1Cl`, for which the growth inhibition is -0.21%.
As to `COc1ccc(C(=O)NCC2(N(C)C)CCCCC2)cc1`, the growth inhibition worked out at 9.91%.
For the compound `CCN1CCCC(OC(=O)C2(O)c3ccccc3C=Cc3ccccc32)C1` (configuration not stated), the growth inhibition is -1.59%.
As to `Cc1cc(C(=O)NCC2(N3CCCCC3)CCCCC2)ccc1[N+](=O)[O-]`, the growth inhibition came out at 3.64%.
For `O=C(NCC1(N2CCCCC2)CCCCC1)c1cccc(Br)c1`, the growth inhibition was -0.847%.
For the compound `O=C(NCC1(N2CCCCC2)CCCCC1)c1cc(F)c(F)cc1Cl`, the growth inhibition was -3.7%.
For `CN(C)CCOC(=O)C(O)(c1ccccc1)C1CCCCC1` (configuration not stated), the growth inhibition was determined as 4.56%.
The result for `Cc1ccccc1C(=O)NCC1(N2CCCCC2)CCCCC1` reads 1.97%; that for `CN(C)c1ccc(C(=O)NCC2(N(C)C)CCCCC2)cc1`, 2.27%; that for `CN(C)C1CCCC1OC(=O)C(O)(c1ccccc1)c1ccccc1` (configuration not stated), 0.857%.
